Assay results as given in patent US10064890B2, “Amorphous calcium carbonate for the treatment of calcium malabsorption and metabolic bone disorders” (AMORPHICAL LTD, priority 2011, dated 2018).

Experiment: Trial 6: body weight and food consumption
Type: in vivo, Sprague Dawley rats
Conditions: OVX rats, recorded weekly

Work on `O=C([O-])[O-].[Ca+2]` [CCC, crystalline calcium carbonate] yielded a Mean food consumption of 12.9 g/day.
